Data source: PubChem BioAssay AID1259254 (NCATS, 2017)
Purpose: 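Finding genes that stop cells copying their DNA twice in one cycle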 (primary screen). System: human HCT116 colorectal cancer cells. Reagent: single siRNA against human genes. Timing: 3 days. Read-out: 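Nuclei stained with Hoechst and imaged; cell-cycle phase assigned by DNA content; G2 share scaled per plate, non-targeting siRNA 0%, GMNN siRNA 100%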. Reading the numbers: G2 robust z-score and G2 cells, % of GMNN control: higher = more G2 cells, more excess DNA replication; raw share of cells in G2: higher = larger share of cells with G2 DNA content. Call rule: 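Active siRNAs have a G2 robust z of 5 or more median absolute deviations over the median, which in these data means about 38% or higher of GMNN control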.
The deposit covers about 59,000 reagents; this is a random part of them. About 1,550 of them (2.6%) count as active. 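G2 share is only a proxy for re-replication; each gene was hit by three separate siRNAs, and active genes were retested.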 Raw values are not corrected between plates. Unmarked entries are inactive. The numbers tell different reagents against one gene apart. Not given: the amount of reagent.

gene knocked down | reagent | G2 robust z-score | G2 cells, % of GMNN control | raw share of cells in G2 (%)
FBXW11 (GeneID 23291) | 1 | 2.88 | 23.2 | 15.7
FBXW11 (GeneID 23291) | 2 | -0.319 | 0.725 | 4.4
FBXW11 (GeneID 23291) | 3 | 0.561 | 6.91 | 6.23
FAT3 (GeneID 120114) | 1 | -0.485 | -0.442 | 5.47
FAT3 (GeneID 120114) | 2 | -0.194 | 1.6 | 5.65
FAT3 (GeneID 120114) | 3 | -0.829 | -2.86 | 3.4
LRFN1 (GeneID 57622) | 1 | -0.687 | -1.86 | 4.87
LRFN1 (GeneID 57622) | 2 | 1.92 | 16.5 | 10.2
LRFN1 (GeneID 57622) | 3 | 0.817 | 8.72 | 7.39
BEND3 (GeneID 57673) | 1 | -0.918 | -3.49 | 2.97
BEND3 (GeneID 57673) | 2 | 0.749 | 8.24 | 8.4
BEND3 (GeneID 57673) | 3 | -0.79 | -2.59 | 2.21
PAX8 (GeneID 7849) | 1 | -0.55 | -0.899 | 3.93
PAX8 (GeneID 7849) | 2 | -0.532 | -0.776 | 5.27
PAX8 (GeneID 7849) | 3 | 0.187 | 4.28 | 5.89
MGAT4A (GeneID 11320) | 1 | -0.562 | -0.986 | 5.97
MGAT4A (GeneID 11320) | 2 | 2.65 | 21.6 | 11.4
MGAT4A (GeneID 11320) | 3 | 0.943 | 9.6 | 7.15
PRR14L (GeneID 253143) | 1 | 1.03 | 10.2 | 7.29
PRR14L (GeneID 253143) | 2 | -0.394 | 0.193 | 3.2
PRR14L (GeneID 253143) | 3 | 6.4 (active) | 48 | 18.5

Entries above with an active call, once more:
gene knocked down | reagent | G2 robust z-score | G2 cells, % of GMNN control | raw share of cells in G2 (%)
PRR14L (GeneID 253143) | 3 | 6.4 (active) | 48 | 18.5

Further results follow.
gene knocked down | reagent | G2 robust z-score | G2 cells, % of GMNN control | raw share of cells in G2 (%)
OPRL1 (GeneID 4987) | 1 | 1.65 | 14.6 | 11
OPRL1 (GeneID 4987) | 2 | -0.868 | -3.14 | 3.42
OPRL1 (GeneID 4987) | 3 | -0.384 | 0.262 | 3.35
SLC30A4 (GeneID 7782) | 1 | -0.61 | -1.33 | 3.77
SLC30A4 (GeneID 7782) | 2 | 1.39 | 12.8 | 8.68
SLC30A4 (GeneID 7782) | 3 | 1.4 | 12.8 | 11
MARCHF6 (GeneID 10299) | 1 | -1.21 | -5.53 | 3.29
MARCHF6 (GeneID 10299) | 2 | -0.454 | -0.224 | 3.77
MARCHF6 (GeneID 10299) | 3 | -0.434 | -0.0881 | 6.44
MICOS10 (GeneID 440574) | 1 | -0.357 | 0.457 | 3.8
MICOS10 (GeneID 440574) | 2 | -0.979 | -3.92 | 1.93
MICOS10 (GeneID 440574) | 3 | -0.186 | 1.66 | 3.68
CCNT2 (GeneID 905) | 1 | -1.16 | -5.18 | 3.11
CCNT2 (GeneID 905) | 2 | 3.68 | 28.9 | 15.5
CCNT2 (GeneID 905) | 3 | 2.15 | 18.1 | 10.3
PRKCSH (GeneID 5589) | 1 | -1.32 | -6.3 | 3.53
PRKCSH (GeneID 5589) | 2 | -0.355 | 0.472 | 5.57
PRKCSH (GeneID 5589) | 3 | -1.01 | -4.17 | 2.56
SMARCA4 (GeneID 6597) | 1 | 3.71 | 29 | 15.5
SMARCA4 (GeneID 6597) | 2 | -0.612 | -1.34 | 4.09
SMARCA4 (GeneID 6597) | 3 | 0.516 | 6.6 | 6.14
OR8H1 (GeneID 219469) | 1 | 1.08 | 10.6 | 7.4
OR8H1 (GeneID 219469) | 2 | -0.928 | -3.56 | 1.91
OR8H1 (GeneID 219469) | 3 | -0.333 | 0.628 | 3.39
NDN (GeneID 4692) | 1 | 2.65 | 21.6 | 14
NDN (GeneID 4692) | 2 | 0.575 | 7.01 | 8.07
NDN (GeneID 4692) | 3 | -0.228 | 1.36 | 3.64
